# Results are given in words; binding and its absence hold for the method and conditions named. In cells and extracts the contact can be indirect. Some entries that bind do so weakly or less than the wild type.
# Amino acid sequences for entries named in this document (tags omitted). A change or cut given only in a name is not applied to a line headed by its entry.
# UniProt P63104: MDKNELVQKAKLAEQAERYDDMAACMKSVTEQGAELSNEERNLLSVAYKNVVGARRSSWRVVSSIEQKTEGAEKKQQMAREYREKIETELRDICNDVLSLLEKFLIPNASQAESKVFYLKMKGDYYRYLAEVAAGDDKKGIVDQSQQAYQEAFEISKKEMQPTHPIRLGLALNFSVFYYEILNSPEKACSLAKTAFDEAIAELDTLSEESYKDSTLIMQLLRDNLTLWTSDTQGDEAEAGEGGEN
# How the values were obtained:
# [1] = molecular target: Myc-tagged 14–3–3ζ (S58A) (human) (UniProt P63104); experiment: co-IP; anti-Myc immunoprecipitation from lysates of HEK293T cells transfected with pCMV–Myc–14–3–3ζ (WT) or (S58A), treated with DMSO or KB1541 (methods: 8 μM biotinylated KB1541 for 5 days); lysis buffer 50 mM Tris-HCl pH 7.4, 150 mM KCl, 0.05% NP-40; immunoblot for ATP synthase 5 alpha and beta
# [2] = molecular target: Myc-tagged 14–3–3ζ (WT) (human) (UniProt P63104); experiment: as above
substance,measurement,setting,value
ATP synthase 5 beta (from UniProt P06576 48-529),binding,[1],binds
same,binding,[2],binds
